Source: patent US8871280B1, “Compositions and methods for treating fungal activity in plants or soil” (The United States of America, as represented by the …, priority 2011, dated 2014)
Some entries share one result that the patent states for a list of compounds.

Tested on: Rhizoctonia solani
Test: Greenhouse suppression of damping off of cucumber seedlings in R. solani infested soil amended with plant extract
Format: in vivo, Rhizoctonia solani AG-4, isolate Rs 23A
Settings: soil amendment at 0.3% (v/w), four weeks after sowing, listed as geraniol

SMILES: CC(C)=CCC/C(C)=C/CO [Geraniol]
- % Disease suppression (+ PE + R. solani): > 70%
